Measured values from article PMC2806520.

Sequences of proteins named here, by UniProt entry; tags and fusion partners are left off.
UniProt P22147: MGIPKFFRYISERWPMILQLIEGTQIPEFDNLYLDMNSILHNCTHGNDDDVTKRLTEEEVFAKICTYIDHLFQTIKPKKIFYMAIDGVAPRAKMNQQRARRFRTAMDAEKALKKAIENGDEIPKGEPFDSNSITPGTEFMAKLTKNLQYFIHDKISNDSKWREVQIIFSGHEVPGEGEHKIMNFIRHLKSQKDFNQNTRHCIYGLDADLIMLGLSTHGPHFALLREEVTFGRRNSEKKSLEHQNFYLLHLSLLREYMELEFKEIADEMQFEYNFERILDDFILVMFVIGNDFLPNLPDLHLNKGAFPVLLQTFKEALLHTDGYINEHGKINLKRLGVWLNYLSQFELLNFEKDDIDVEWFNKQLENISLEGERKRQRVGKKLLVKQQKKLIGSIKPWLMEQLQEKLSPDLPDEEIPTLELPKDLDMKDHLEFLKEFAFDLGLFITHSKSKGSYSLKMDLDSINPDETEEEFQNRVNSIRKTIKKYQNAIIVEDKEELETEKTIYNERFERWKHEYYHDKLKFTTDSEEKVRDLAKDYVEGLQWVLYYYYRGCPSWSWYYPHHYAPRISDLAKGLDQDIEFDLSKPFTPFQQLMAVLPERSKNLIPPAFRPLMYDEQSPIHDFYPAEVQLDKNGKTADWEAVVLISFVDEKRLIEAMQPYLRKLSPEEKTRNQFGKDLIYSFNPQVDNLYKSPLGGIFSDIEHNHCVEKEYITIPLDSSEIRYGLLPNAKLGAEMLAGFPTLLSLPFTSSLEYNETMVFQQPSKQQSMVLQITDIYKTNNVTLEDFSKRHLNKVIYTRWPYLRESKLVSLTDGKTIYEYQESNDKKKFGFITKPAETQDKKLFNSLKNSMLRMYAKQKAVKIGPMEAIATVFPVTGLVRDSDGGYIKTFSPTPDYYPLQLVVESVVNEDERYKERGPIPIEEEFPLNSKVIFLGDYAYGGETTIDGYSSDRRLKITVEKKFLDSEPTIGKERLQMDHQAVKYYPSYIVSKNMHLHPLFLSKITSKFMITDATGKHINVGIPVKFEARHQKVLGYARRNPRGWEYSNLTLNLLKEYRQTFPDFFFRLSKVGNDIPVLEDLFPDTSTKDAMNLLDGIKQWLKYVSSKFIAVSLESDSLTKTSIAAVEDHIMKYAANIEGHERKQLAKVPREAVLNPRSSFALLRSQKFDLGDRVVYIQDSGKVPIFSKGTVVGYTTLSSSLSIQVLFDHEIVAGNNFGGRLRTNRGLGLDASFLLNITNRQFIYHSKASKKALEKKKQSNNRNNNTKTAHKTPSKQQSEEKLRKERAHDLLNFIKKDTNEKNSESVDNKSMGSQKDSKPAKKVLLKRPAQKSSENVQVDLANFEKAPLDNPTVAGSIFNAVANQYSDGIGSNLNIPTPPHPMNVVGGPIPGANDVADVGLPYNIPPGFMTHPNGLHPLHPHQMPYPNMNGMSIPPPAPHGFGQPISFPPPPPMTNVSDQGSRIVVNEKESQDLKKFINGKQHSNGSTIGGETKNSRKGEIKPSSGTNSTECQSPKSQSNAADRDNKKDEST

Target: T1, Rrp17p, genomically tagged with Protein A (Rrp17-PrA) (S. cerevisiae) (UniProt Q04031)
T1 sequence: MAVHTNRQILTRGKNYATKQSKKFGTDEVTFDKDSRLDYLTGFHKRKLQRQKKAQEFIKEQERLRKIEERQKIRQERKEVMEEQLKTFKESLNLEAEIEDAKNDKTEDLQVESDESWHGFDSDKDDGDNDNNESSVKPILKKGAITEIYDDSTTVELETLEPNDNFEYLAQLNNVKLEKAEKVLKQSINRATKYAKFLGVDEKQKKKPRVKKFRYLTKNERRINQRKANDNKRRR
Assay: affinity purification with mass spectrometry; single-step affinity purification of Rrp17-PrA complexes from ground frozen yeast cells on IgG-conjugated magnetic beads; SDS-PAGE, Coomassie blue, mass spectrometry

binding: binds
Substance: Xrn1p (from UniProt P22147 1-1528)

These are yes or no findings as the source states them, for the method shown. Binding seen in cells or lysates may run through a third protein. These calls come from enrichment with a bait or labelling near it, and not all partners need be listed. Where a sequence is shown, tags or fusion partners need not be part of it.
